Experiment [1] addresses T1, Flag-CTC1Δ700N (of the purified Δ700N-ST complex) (human) (UniProt Q2NKJ3).
T1 sequence: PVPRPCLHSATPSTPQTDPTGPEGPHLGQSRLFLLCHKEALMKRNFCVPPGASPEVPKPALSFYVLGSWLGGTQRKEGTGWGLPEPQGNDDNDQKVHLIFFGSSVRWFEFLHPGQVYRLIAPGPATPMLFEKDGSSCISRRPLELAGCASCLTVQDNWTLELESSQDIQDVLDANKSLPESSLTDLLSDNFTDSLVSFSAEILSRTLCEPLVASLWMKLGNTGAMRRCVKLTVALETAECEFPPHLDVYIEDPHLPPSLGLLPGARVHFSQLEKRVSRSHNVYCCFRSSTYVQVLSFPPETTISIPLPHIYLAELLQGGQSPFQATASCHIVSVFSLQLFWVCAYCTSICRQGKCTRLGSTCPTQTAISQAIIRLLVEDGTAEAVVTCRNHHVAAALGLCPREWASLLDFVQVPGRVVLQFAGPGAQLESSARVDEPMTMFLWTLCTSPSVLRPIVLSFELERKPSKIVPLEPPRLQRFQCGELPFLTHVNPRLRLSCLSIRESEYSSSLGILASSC
The experiment can be described thus: co-purification.

By UniProt entry, the sequences of proteins in these tests, tags left out. Where a name states a change or a piece, a line headed by the entry shows the natural chain unless it says otherwise.
UniProt Q06609, whole entry: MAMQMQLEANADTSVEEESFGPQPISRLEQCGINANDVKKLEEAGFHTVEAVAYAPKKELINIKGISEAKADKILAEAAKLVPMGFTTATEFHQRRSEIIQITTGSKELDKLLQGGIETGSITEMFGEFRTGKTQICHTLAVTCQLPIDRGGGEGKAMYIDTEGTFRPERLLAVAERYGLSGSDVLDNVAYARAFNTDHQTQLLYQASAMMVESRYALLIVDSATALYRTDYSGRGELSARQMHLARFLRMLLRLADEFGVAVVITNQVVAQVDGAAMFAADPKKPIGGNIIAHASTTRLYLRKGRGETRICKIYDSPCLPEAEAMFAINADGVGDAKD

The target in experiment [2] is T2, Flag-CTC1 (wild type, of the purified human CST complex) (human) (UniProt Q2NKJ3).
T2 sequence: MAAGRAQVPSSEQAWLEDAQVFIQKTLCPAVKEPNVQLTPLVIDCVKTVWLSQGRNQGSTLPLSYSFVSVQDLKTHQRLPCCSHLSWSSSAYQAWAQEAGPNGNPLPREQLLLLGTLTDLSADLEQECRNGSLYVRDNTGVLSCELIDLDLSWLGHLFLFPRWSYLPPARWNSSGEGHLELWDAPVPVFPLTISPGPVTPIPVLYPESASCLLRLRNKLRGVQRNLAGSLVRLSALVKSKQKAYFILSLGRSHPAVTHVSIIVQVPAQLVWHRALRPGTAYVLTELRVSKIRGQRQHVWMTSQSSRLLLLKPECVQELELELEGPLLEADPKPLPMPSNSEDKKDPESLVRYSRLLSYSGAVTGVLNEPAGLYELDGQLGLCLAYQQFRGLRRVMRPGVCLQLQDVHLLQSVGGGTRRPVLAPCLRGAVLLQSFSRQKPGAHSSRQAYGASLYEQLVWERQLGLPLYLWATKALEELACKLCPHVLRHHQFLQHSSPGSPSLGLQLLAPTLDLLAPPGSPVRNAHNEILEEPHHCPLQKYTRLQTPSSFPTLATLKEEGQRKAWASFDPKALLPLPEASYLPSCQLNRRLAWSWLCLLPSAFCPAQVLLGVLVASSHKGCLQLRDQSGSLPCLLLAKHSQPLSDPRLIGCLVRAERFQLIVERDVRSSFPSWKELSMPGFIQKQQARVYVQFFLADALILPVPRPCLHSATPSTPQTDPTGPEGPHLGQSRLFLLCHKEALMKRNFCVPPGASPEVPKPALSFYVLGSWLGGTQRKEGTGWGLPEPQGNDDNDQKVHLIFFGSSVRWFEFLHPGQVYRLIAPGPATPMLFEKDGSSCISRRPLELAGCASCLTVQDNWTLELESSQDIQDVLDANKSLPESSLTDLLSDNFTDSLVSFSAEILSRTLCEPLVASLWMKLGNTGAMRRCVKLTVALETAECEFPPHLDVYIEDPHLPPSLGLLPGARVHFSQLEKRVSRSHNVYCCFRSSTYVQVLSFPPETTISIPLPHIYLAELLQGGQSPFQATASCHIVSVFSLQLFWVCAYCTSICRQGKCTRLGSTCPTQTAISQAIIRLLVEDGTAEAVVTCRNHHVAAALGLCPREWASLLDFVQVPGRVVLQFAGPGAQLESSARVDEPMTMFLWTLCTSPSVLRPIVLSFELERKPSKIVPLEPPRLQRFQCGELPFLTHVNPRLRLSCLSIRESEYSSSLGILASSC
The experiment can be described thus: co-purification.

For experiment [3], the target named is T3, Myc-CTC1 (full-length WT-CTC1) (human) (UniProt Q2NKJ3).
T3 sequence: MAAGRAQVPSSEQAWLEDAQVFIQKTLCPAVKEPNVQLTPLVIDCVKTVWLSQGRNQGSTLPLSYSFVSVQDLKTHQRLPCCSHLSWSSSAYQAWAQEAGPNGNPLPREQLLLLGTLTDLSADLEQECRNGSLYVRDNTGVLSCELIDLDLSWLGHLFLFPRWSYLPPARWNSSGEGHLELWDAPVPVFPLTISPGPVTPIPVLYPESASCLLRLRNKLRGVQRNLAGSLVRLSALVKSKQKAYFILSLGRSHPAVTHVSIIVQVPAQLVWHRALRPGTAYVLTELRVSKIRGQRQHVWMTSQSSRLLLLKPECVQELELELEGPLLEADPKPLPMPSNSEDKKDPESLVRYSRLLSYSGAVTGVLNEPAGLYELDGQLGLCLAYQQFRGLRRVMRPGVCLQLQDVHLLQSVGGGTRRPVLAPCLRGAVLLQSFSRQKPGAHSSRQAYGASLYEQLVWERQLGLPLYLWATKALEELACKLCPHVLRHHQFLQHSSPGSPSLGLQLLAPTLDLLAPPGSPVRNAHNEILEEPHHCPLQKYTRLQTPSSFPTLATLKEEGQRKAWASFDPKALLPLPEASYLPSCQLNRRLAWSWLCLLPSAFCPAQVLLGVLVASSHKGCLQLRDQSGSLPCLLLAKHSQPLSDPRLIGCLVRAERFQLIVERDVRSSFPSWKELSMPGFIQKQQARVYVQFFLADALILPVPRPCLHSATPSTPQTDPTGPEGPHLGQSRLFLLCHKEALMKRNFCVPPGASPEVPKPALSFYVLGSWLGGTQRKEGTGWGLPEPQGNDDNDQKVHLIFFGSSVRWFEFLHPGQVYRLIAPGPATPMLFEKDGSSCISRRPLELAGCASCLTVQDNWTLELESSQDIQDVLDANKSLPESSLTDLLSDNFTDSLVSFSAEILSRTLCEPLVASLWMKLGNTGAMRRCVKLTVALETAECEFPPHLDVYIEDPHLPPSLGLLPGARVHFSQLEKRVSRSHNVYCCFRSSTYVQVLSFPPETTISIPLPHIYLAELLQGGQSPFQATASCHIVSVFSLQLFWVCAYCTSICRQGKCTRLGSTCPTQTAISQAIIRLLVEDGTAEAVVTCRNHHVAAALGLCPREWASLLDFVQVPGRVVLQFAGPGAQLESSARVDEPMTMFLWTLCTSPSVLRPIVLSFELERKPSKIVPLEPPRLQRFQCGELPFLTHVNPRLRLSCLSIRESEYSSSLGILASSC
The experiment can be described thus: co-IP.

The target in experiment [4] is T4, Myc-Δ700N (CTC1 lacking the N-terminal 700 residues) (human) (UniProt Q2NKJ3).
T4 sequence: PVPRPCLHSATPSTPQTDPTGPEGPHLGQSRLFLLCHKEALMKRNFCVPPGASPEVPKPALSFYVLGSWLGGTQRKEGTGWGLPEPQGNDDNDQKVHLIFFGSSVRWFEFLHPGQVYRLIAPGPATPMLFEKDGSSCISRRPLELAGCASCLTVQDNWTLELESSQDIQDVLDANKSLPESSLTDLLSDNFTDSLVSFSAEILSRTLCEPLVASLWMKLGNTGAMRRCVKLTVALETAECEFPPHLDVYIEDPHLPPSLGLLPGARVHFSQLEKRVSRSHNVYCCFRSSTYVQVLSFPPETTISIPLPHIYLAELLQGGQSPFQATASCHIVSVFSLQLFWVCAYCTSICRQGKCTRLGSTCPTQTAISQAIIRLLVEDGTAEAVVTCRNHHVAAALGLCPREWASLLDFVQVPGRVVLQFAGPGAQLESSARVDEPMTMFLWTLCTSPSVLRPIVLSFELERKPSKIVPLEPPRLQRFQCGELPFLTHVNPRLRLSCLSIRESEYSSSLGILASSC
The experiment can be described thus: co-IP.

The target of experiment [5] is Flag-RAD51 (UniProt Q06609). The experiment can be described thus: co-IP.

No constants are given. Whether binding was seen depends on the method and setting. For some of these results: Binding seen in cells or lysates may run through a third protein. Some binding calls cover weakened binding; strength is not graded here. Sequences can lack the tags named with a protein.

B1: TEN1-(His)6 (of the purified human CST complex) (protein, UniProt Q86WV5 1-123)
chain: MMLPKPGTYYLPWEVSAGQVPDGSTLRTFGRLCLYDMIQSRVTLMAQHGSDQHQVLVCTKLVEPFHAQVGSLYIVLGELQHQQDRGSVVKARVLTCVEGMNLPLLEQAIREQRLYKQERGGSQ
In the case of B1, the binding entry in experiment [1] and in experiment [2] was “binds” each time.

B2: HA-TEN1 (protein, UniProt Q86WV5 1-123)
chain: MMLPKPGTYYLPWEVSAGQVPDGSTLRTFGRLCLYDMIQSRVTLMAQHGSDQHQVLVCTKLVEPFHAQVGSLYIVLGELQHQQDRGSVVKARVLTCVEGMNLPLLEQAIREQRLYKQERGGSQ
As to B2, the binding result in experiment [3] and in experiment [4] was “binds” in each case.

B3: His6-STN1 (protein, UniProt Q9H668 1-368)
chain: MQPGSSRCEEETPSLLWGLDPVFLAFAKLYIRDILDMKESRQVPGVFLYNGHPIKQVDVLGTVIGVRERDAFYSYGVDDSTGVINCICWKKLNTESVSAAPSAARELSLTSQLKKLQETIEQKTKIEIGDTIRVRGSIRTYREEREIHATTYYKVDDPVWNIQIARMLELPTIYRKVYDQPFHSSALEKEEALSNPGALDLPSLTSLLSEKAKEFLMENRVQSFYQQELEMVESLLSLANQPVIHSASSDQVNFKKDTTSKAIHSIFKNAIQLLQEKGLVFQKDDGFDNLYYVTREDKDLHRKIHRIIQQDCQKPNHMEKGCHFLHILACARLSIRPGLSEAVLQQVLELLEDQSDIVSTMEHYYTAF
With B3, the binding entry in experiment [3] and in experiment [4] was “binds” each time.

B4: STN1 (of the purified human CST complex) (protein, UniProt Q9H668 1-368)
chain: MQPGSSRCEEETPSLLWGLDPVFLAFAKLYIRDILDMKESRQVPGVFLYNGHPIKQVDVLGTVIGVRERDAFYSYGVDDSTGVINCICWKKLNTESVSAAPSAARELSLTSQLKKLQETIEQKTKIEIGDTIRVRGSIRTYREEREIHATTYYKVDDPVWNIQIARMLELPTIYRKVYDQPFHSSALEKEEALSNPGALDLPSLTSLLSEKAKEFLMENRVQSFYQQELEMVESLLSLANQPVIHSASSDQVNFKKDTTSKAIHSIFKNAIQLLQEKGLVFQKDDGFDNLYYVTREDKDLHRKIHRIIQQDCQKPNHMEKGCHFLHILACARLSIRPGLSEAVLQQVLELLEDQSDIVSTMEHYYTAF
In the case of B4, the binding result in experiment [1] and in experiment [2] was “binds” in each case.

B5: Myc-CTC1 (full-length WT-CTC1) (protein, UniProt Q2NKJ3 1-1217)
chain: MAAGRAQVPSSEQAWLEDAQVFIQKTLCPAVKEPNVQLTPLVIDCVKTVWLSQGRNQGSTLPLSYSFVSVQDLKTHQRLPCCSHLSWSSSAYQAWAQEAGPNGNPLPREQLLLLGTLTDLSADLEQECRNGSLYVRDNTGVLSCELIDLDLSWLGHLFLFPRWSYLPPARWNSSGEGHLELWDAPVPVFPLTISPGPVTPIPVLYPESASCLLRLRNKLRGVQRNLAGSLVRLSALVKSKQKAYFILSLGRSHPAVTHVSIIVQVPAQLVWHRALRPGTAYVLTELRVSKIRGQRQHVWMTSQSSRLLLLKPECVQELELELEGPLLEADPKPLPMPSNSEDKKDPESLVRYSRLLSYSGAVTGVLNEPAGLYELDGQLGLCLAYQQFRGLRRVMRPGVCLQLQDVHLLQSVGGGTRRPVLAPCLRGAVLLQSFSRQKPGAHSSRQAYGASLYEQLVWERQLGLPLYLWATKALEELACKLCPHVLRHHQFLQHSSPGSPSLGLQLLAPTLDLLAPPGSPVRNAHNEILEEPHHCPLQKYTRLQTPSSFPTLATLKEEGQRKAWASFDPKALLPLPEASYLPSCQLNRRLAWSWLCLLPSAFCPAQVLLGVLVASSHKGCLQLRDQSGSLPCLLLAKHSQPLSDPRLIGCLVRAERFQLIVERDVRSSFPSWKELSMPGFIQKQQARVYVQFFLADALILPVPRPCLHSATPSTPQTDPTGPEGPHLGQSRLFLLCHKEALMKRNFCVPPGASPEVPKPALSFYVLGSWLGGTQRKEGTGWGLPEPQGNDDNDQKVHLIFFGSSVRWFEFLHPGQVYRLIAPGPATPMLFEKDGSSCISRRPLELAGCASCLTVQDNWTLELESSQDIQDVLDANKSLPESSLTDLLSDNFTDSLVSFSAEILSRTLCEPLVASLWMKLGNTGAMRRCVKLTVALETAECEFPPHLDVYIEDPHLPPSLGLLPGARVHFSQLEKRVSRSHNVYCCFRSSTYVQVLSFPPETTISIPLPHIYLAELLQGGQSPFQATASCHIVSVFSLQLFWVCAYCTSICRQGKCTRLGSTCPTQTAISQAIIRLLVEDGTAEAVVTCRNHHVAAALGLCPREWASLLDFVQVPGRVVLQFAGPGAQLESSARVDEPMTMFLWTLCTSPSVLRPIVLSFELERKPSKIVPLEPPRLQRFQCGELPFLTHVNPRLRLSCLSIRESEYSSSLGILASSC
Regarding B5, the binding result in experiment [5] was “binds”.

B6: Myc-Δ700N (CTC1 lacking the N-terminal 700 residues) (domain or fragment, UniProt Q2NKJ3 701-1217)
chain: PVPRPCLHSATPSTPQTDPTGPEGPHLGQSRLFLLCHKEALMKRNFCVPPGASPEVPKPALSFYVLGSWLGGTQRKEGTGWGLPEPQGNDDNDQKVHLIFFGSSVRWFEFLHPGQVYRLIAPGPATPMLFEKDGSSCISRRPLELAGCASCLTVQDNWTLELESSQDIQDVLDANKSLPESSLTDLLSDNFTDSLVSFSAEILSRTLCEPLVASLWMKLGNTGAMRRCVKLTVALETAECEFPPHLDVYIEDPHLPPSLGLLPGARVHFSQLEKRVSRSHNVYCCFRSSTYVQVLSFPPETTISIPLPHIYLAELLQGGQSPFQATASCHIVSVFSLQLFWVCAYCTSICRQGKCTRLGSTCPTQTAISQAIIRLLVEDGTAEAVVTCRNHHVAAALGLCPREWASLLDFVQVPGRVVLQFAGPGAQLESSARVDEPMTMFLWTLCTSPSVLRPIVLSFELERKPSKIVPLEPPRLQRFQCGELPFLTHVNPRLRLSCLSIRESEYSSSLGILASSC
Take B6: the binding entry in experiment [5] was “binds”.

The values above are taken from paper doi:10.1101/797647.
